No constants are given. Whether binding was seen depends on the method and setting. In cells and extracts the contact can be indirect.
Molecular target: T1, endogenous UBN1 (mES cells) (mouse (endogenous in mES cells)), Q4G0F8
T1 chain: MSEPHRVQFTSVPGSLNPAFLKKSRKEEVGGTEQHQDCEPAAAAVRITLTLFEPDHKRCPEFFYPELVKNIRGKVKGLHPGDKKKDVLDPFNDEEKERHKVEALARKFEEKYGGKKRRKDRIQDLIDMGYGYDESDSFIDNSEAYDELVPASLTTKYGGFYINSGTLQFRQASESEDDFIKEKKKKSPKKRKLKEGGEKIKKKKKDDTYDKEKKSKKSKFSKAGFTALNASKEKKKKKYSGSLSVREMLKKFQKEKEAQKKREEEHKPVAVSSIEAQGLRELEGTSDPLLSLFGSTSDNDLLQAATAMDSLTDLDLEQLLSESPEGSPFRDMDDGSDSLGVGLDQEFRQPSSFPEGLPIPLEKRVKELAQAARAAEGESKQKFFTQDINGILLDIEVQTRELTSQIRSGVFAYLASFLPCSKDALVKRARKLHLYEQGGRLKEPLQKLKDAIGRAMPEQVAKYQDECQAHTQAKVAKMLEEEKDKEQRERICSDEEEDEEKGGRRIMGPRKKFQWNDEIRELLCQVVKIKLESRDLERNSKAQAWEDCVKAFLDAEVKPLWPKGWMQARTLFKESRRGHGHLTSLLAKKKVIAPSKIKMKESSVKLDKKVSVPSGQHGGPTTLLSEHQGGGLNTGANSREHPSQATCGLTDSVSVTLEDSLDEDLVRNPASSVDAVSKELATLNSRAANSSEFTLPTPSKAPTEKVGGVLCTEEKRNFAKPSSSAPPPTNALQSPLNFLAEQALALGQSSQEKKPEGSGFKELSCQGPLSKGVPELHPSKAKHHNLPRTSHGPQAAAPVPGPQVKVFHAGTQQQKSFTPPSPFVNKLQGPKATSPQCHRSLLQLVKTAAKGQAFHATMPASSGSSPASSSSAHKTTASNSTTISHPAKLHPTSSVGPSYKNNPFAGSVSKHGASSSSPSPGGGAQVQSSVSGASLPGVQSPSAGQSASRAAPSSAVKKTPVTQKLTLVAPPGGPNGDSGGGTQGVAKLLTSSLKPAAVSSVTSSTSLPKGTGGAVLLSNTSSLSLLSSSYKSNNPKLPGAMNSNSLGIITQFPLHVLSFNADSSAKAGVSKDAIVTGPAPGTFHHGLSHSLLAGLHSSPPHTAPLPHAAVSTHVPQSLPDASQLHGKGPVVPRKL
Assay: co-IP; endogenous proteins of mES cells; in-house UBN1 antibody or in-house UBN2 antibody, protein-A agarose beads, RIPA buffer; Western blot
Settings: remark: other sources report otherwise

binding: no binding
B1: endogenous UBN2 (mES cells), Q80WC1 1-1314 (protein)
chain: MAEPRRVAFISLSPVRRREADFAGAEREPPRLEPQPYREPARAEPAPRADAQPPARDKPLPQREVSRAEPPMALQREPPRPEPPPPPLPLQTPPPRESASRAEPPPRPPKETVRLELVLKDPTDESCVEFSYPELLLCGEQRKKLVHTEDPFTDEHKERQEVEMLAKKFEMKYGGKARKHRKDRLQDLIDIGFGYDETDPFIDNSEAYDELVPASLTTKYGGFYINTGTLQFRQASDTEEDDFTDNQKHKPPKVPKIKEDDIEVKKRKRKEEGEKEKKPRKKVPKQLGVVALNSHKSEKKKKRYKDSLSLAAMIRKFQKEKDALKKESTPKVPVTPSSSSLPKPPCVTTALGDDIPDLGLNSADPDLPIFVSTNEHELFQEAENALEMLDDFDFDRLLDATSDGSPLSESGGENGNTTHPTFPSQVVPKVVPTLPEGLPVLLEKRIEDLRVAAKLFDEEGRKKFFTQDMNNILLDIELQLQELGPVIRSGVYSHLEAFVPCNKETLVKRLKKLHLNVQDDRLREPLQKLKLAVSNVMPEQLFKYQEDCQARSQAKCAKLQADEEREKNGSDDDDDEKPGKRVIGPRKKFHWDDTIRTLLCNLVEIKLGCYELEPNKSQSAEDYLKSFMETEVKPLWPKGWMQARMLFKESRSVHNHLTSAPAKKKVIPASKPKVKECSPKKDPKAPASVVASGGGPSTSSSTSIVASASSSSAPAQETICLDDSLDEDLSFPSASLDLVSEALAVINNGNKGPSVGSRLNVPTTKPRPGLREEKLASIMSKLPLATPKKLDSTQTAHSSSLIAGHTGPVPKKPQDLAHTGISSGLIAGSSIQNPKVSLEPLPARLLQQGLQRSSQIHASSSSQTHVSSSQAQAAASSHALGTSEAQDASSLTQVTKVHQHSAVQQNYVSPLQATISKSQTNPVVKLSNNPQLSCSSQLLKTSDKPLMYRLPLSTPSPGNGSQGPHPLVSRTAPSTTTSSNYLAKAMVSQISTQGFKSPFSMAASPKLAASPKPATSPKPLPSPKPSVSPKPSLSAKPSISTKQISKSNPAPKPAVCPSSSSPNTLVAQSSHSTSNNPVHKQPSGMNISRQSPTLNLLPSNRTSGLPTTKTLQAPSKLTNSSSTGTAGKNSLSGIPMNVPASRGSNLNSSGANRTSLSGGTGSGTQGATKPLSTPHRPTSASGSSVVTASVQSTAGASLLANASPLTLMTSPLSVTNQTVTPFGMLGGLVPVTMPFQFPLELLGFGTDTAGVTATSGSTSAALHHSLTQNLLKSLQPGAQHAAALPHSPLPAHLQQAFNDGGQSKGDTKLPRKPQ

— paper PMC6171237
